Laboratory results published in PMC4392283.
These are yes or no findings as the source states them, for the method shown. Binding seen in cells or lysates may run through a third protein. Some binding calls cover weakened binding; strength is not graded here.

How the values were obtained:
[1] = target: PKCα (human (endogenous in HEK293)) (UniProt P17252); assay: co-IP; HEK293 cells in Glc(−) DMEM (glucose deprivation), 10 μM MG132 for 8 h from 16 h; PKCα immunoprecipitated with an anti-PKCα antibody, immunoblotting with anti-β-catenin and anti-PKCα antibodies
[2] = target: PKCα (human (endogenous in HEK293)) (UniProt P17252); assay: condition: only normal glucose conditions (Glc(+)), cells without glucose deprivation; co-IP; HEK293 cells in Glc(+) DMEM (normal glucose), 10 μM MG132 for 8 h; PKCα immunoprecipitated with an anti-PKCα antibody, immunoblotting with anti-β-catenin and anti-PKCα antibodies

binding [1]: binds
binding [2]: no binding
Substance: β-catenin (from UniProt P35222 1-781)
